PMC11173052, “The Development of Robust Antibodies to Sarcospan, a Dystrophin- and Integrin-Associated Protein, for Basic and Translational Research” (International Journal of Molecular Sciences, 2024)
These are yes or no findings as the source states them, for the method shown. Some binding calls cover weakened binding; strength is not graded here. Values belong to the binder of their own block, whether it stands above or below them.

What was measured:
[1] = target: human sarcospan (hSSPN) (human) (UniProt Q14714); assay: oligomer bands on immunoblot of immunoprecipitated protein (reducing SDS-PAGE); quadriceps lysates (50 mM Tris, 150 mM NaCl, 1% NP-40, pH 7.4) of hSSPN-TG, mSSPN-TG, WT and SSPN-null mice immunoprecipitated with anti-SSPN monoclonal antibodies on protein A/G PLUS-agarose; eluates resolved by SDS-PAGE under reducing conditions and blotted with E2 or 10B8
[2] = target: mouse sarcospan (mSSPN) (mouse) (UniProt Q62147); assay: as above

binding [1]: binds
B1: human sarcospan (hSSPN) (natural protein, UniProt Q14714 1-243, looked up)
chain: MGKNKQPRGQQRQGGPPAADAAGPDDMEPKKGTGAPKECGEEEPRTCCGCRFPLLLALLQLALGIAVTVVGFLMASISSSLLVRDTPFWAGIIVCLVAYLGLFMLCVSYQVDERTCIQFSMKLLYFLLSALGLTVCVLAVAFAAHHYSQLTQFTCETTLDSCQCKLPSSEPLSRTFVYRDVTDCTSVTGTFKLFLLIQMILNLVCGLVCLLACFVMWKHRYQVFYVGVRICSLTASEGPQQKI
notes: sarcospan, human, GenBank AF016028; hSSPN-TG muscle also holds endogenous mouse SSPN; also called human SSPN; source: transgenic overexpression in mouse skeletal muscle (hSSPN-TG, Ln3), quadriceps muscle lysate

binding [2]: binds
B2: mouse sarcospan (mSSPN) (natural protein, UniProt Q62147 1-216, looked up)
chain: MGRKPSPRAQELPEEEARTCCGCRFPLLLALLQLALGIAVTVLGFLMASISPSLLVRDTPFWAGSIVCVVAYLGLFMLCVSYQVDERTCVQFSMKVFYFLLSALGLMVCMLAVAFAAHHYSLLAQFTCETSLDSCQCKLPSSEPLSRAFVYRDVTDCTSVTGTFKLFLIIQMVLNLVCGLVCLLACFVMWKHRYQVFYVGVGLRSLMASDGQLPKA
notes: sarcospan, mouse, GenBank U02487; 25-kDa protein with four transmembrane domains; seen as monomer and as a dimer band on reducing SDS-PAGE of immunoprecipitates; also called mouse SSPN; murine SSPN; source: endogenous (wild type) or transgenic overexpression (mSSPN-TG, Ln28), mouse quadriceps muscle lysate
